# PubChem BioAssay AID652243, Drosophila RNAi Screening Center, 2013
# Assay: 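Fly regulators of androgen-dependent reporter output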 (primary screen)
# Cell system: Drosophila S2R+ cells
# Reagent: long dsRNA against Drosophila genes
# Timing: 72 h (48 h, then 24 h hormone)
# Conditions: synthetic androgen R1881 at 10 nM for 24 h
# Measurement: 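Firefly light from an androgen-responsive reporter and Renilla control light per well, raw and unnormalised, for each of two replicates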
# Reading the numbers: firefly reporter light: higher = more light from androgen-responsive reporter; Renilla control light: higher = more constitutive control signal (cell number, transfection)
# Rule for the call: 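Across duplicate plates, a knock-down whose log firefly/Renilla ratio shifted a set fold down or up from the GFP/LacZ control mean was a hit; the downward cut appears as both 1.5 and 3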
# Calls: active = hit: reporter lowered or raised; inactive = no hit
# The screen tested about 24,000 reagents; below is an unselected part of those that have a named target and a result. In the full data, 246 (1%) got an active call. 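Plates not normalised; calls are printed but the firefly/Renilla ratio behind them is not deposited; fold cut for lowering reported inconsistently.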 Raw values are not corrected between plates. A plus sign joins genes that one reagent is predicted to hit. Not given: the amount of reagent.
target gene,dsRNA,"firefly reporter light, replicate 1","firefly reporter light, replicate 2","Renilla control light, replicate 1","Renilla control light, replicate 2",Call
dco (GeneID 43673),DRSC16929,1.15e5,1.03e5,6.51e5,5.55e5,inactive
dco (GeneID 43673),DRSC29211,7.95e5,5.33e5,1.06e6,9.85e5,inactive
dco (GeneID 43673),DRSC36998,,,,,inactive
CG33096 (GeneID 326251),DRSC14440,52343,61338,4.68e5,4.72e5,inactive
CG33096 (GeneID 326251),DRSC25968,2.88e5,4.79e5,8.00e5,7.96e5,inactive
CG17026 (GeneID 39739),DRSC10237,5.11e5,6.82e5,1.30e6,1.65e6,inactive
CG17026 (GeneID 39739),DRSC24059,1.06e6,8.88e5,8.07e5,9.09e5,inactive
CG17026 (GeneID 39739),DRSC39282,,,,,inactive
mol (GeneID 34872),DRSC01431,1.43e5,2.01e5,5.02e5,4.03e5,inactive
mol (GeneID 34872),DRSC01912,3.52e5,1.81e5,1.05e6,9.02e5,inactive
mol (GeneID 34872),DRSC02479,1.76e5,1.57e5,2.34e6,2.52e6,inactive
mol (GeneID 34872),DRSC23967,5.88e5,3.85e5,3.90e5,2.71e5,inactive
robl37BC (GeneID 35166),DRSC02472,1.11e5,1.17e5,1.50e6,1.44e6,inactive
RASSF8 (GeneID 43096),DRSC15707,1.86e5,90061,9.47e5,6.49e5,inactive
RASSF8 (GeneID 43096),DRSC26449,3.06e5,2.84e5,4.64e5,6.60e5,inactive
CG14324 (GeneID 42119),DRSC14803,1.38e5,88579,2.43e6,1.39e6,inactive
CG14324 (GeneID 42119),DRSC24292,8.23e5,6.46e5,7.30e5,7.82e5,inactive
DptB (GeneID 37184),DRSC06001,1.21e5,1.48e5,2.32e6,2.94e6,inactive
CG14610 + asRNA:CR42738,DRSC12554,53488,78076,1.81e6,1.16e6,inactive
lncRNA:CR32368 (GeneID 317997),DRSC08899,2.28e5,2.04e5,6.17e5,7.15e5,inactive
lncRNA:CR32368 (GeneID 317997),DRSC25473,5.74e5,6.56e5,9.46e5,1.08e6,inactive
Peritrophin-15a (GeneID 50433),DRSC02636,2.10e5,2.84e5,2.42e6,2.22e6,inactive
Peritrophin-15a (GeneID 50433),DRSC29171,5.73e5,4.86e5,1.44e6,1.46e6,inactive
bys (GeneID 31701),DRSC18748,62456,34505,6.02e5,3.73e5,inactive
bys (GeneID 31701),DRSC29013,4.24e5,2.78e5,1.14e6,6.55e5,inactive
Tbcd (GeneID 33389),DRSC00273,1.01e6,9.95e5,4.24e6,2.41e6,inactive
CG11777 (GeneID 36108),DRSC06081,3.06e5,2.46e5,1.69e6,1.83e6,inactive
CG11777 (GeneID 36108),DRSC26750,2.84e5,2.84e5,6.43e5,3.76e5,inactive
CG14668 (GeneID 40646),DRSC12254,49653,63761,1.33e6,1.40e6,inactive
CG9447 (GeneID 35597),DRSC05008,1.32e5,1.60e5,9.06e5,1.23e6,inactive
CG13984 (GeneID 33879),DRSC02316,2.88e5,2.26e5,1.67e6,1.13e6,inactive
Glt (GeneID 34193),DRSC03333,6.51e5,7.96e5,1.23e6,1.22e6,inactive
Glt (GeneID 34193),DRSC28681,4.85e5,4.36e5,1.66e6,1.37e6,inactive
CG7264 (GeneID 39339),DRSC10793,1.26e5,88998,1.69e6,1.18e6,inactive
CG7264 (GeneID 39339),DRSC26046,2.02e5,2.53e5,8.56e5,7.90e5,inactive
Nup205 (GeneID 33002),DRSC19432,87652,1.09e5,4.61e5,6.10e5,inactive
CG3635 (GeneID 35447),DRSC03729,1.80e5,2.03e5,1.55e6,1.25e6,inactive
wcd (GeneID 36831),DRSC07051,9.98e5,8.31e5,2.37e6,2.01e6,inactive
tld (GeneID 42945),DRSC17084,2.59e5,2.34e5,2.22e6,2.51e6,inactive
Mgat4b (GeneID 39609),DRSC10256,2.14e5,1.67e5,2.23e6,2.02e6,inactive
Mgat4b (GeneID 39609),DRSC29839,7.41e5,5.52e5,1.48e6,1.28e6,inactive

Just “Renilla control light, replicate 1”, for 4 of the entries above:
CG14668 (GeneID 40646) [DRSC12254]: 1.33e6
CG9447 (GeneID 35597) [DRSC05008]: 9.06e5
CG13984 (GeneID 33879) [DRSC02316]: 1.67e6
Glt (GeneID 34193) [DRSC03333]: 1.23e6
